This note sets out measurements from paper PMC12370185.

What all share (conditions): 10 mM Tris-Cl pH 7.5, 50 mM NaCl, 1 mM DTT, 0.25 mg/ml BSA, 2 mM MgCl2, 0.025% Nonidet P-40, 5% glycerol; 28 nM nucleosome library; 10 min on ice then 30 min …; high values mean tight binding; double strand, one strand shown
In one experiment the test system is KLF4 + histone octamer. As to the kind of experiment: EMSA with sequencing. On the technique in general: In EMSA bound probe runs differently from free probe, usually more slowly.
Another experiment relates to OCT4 + histone octamer. As to the kind of experiment: EMSA with sequencing.
Experiment [1] relates to SOX2 + histone octamer. As to the kind of experiment: EMSA with sequencing.
Experiment [2] concerns c-MYC + MAX + histone octamer. As to the kind of experiment: Pioneer-seq (competitive nucleosome EMSA with sequencing).
Experiment [3] concerns c-MYC + MAX + histone octamer. As to the kind of experiment: EMSA with sequencing.
The test system of experiment [4] is SOX2 + histone octamer. As to the kind of experiment: Pioneer-seq (competitive nucleosome EMSA with sequencing).

The other results are listed elsewhere or left out. For part of these data: At the low end of the ranking the order means little.

In the case of “GATGGACCCTATACGCGGCAAACAGACAGGGGGCCAAAACCAAGGCTTCTCCTCCCCAAGCCGACACCCCACACTTCCTACATGTGGTGGCTGCCCACGGGCTGGAAGACAGTGCCTCTCCCATGACCCCTCAGTGCATCACCCCACCCATCTGAGCAACAGGTTTCACCCAGAAGCAGCAAAAAGCTACGGCACTTTTGACATTTAATATGCCAGTCGGATAGTGTTCC”, the binding signal (log2 relative supershift) is 1.76 in the experiment with KLF4 + histone octamer, 0.43 in the experiment with OCT4 + histone octamer, 0.209 with SOX2 + histone octamer [1] and -0.145 in experiment [2].

As for “GATGGACCCTATACGCGGCGTTTAGAAGCCATATCAGATGAAAGATACGGGGCCTTTTTTATGCATAATGTAATGCACTCCAGTACGTGGCCATCACACCCCGTCTAATGGCTGCTGAGAGGCCTTTTTACCATGGCTGCCCTCTTATCTTCCAGCCTGTTCTTTATATACATCATTGTCAGCCAAATTCTGGAGGGGTGAAGGGTTGTTTGCCAGTCGGATAGTGTTCC”, the binding signal (log2 relative supershift) with KLF4 + histone octamer was 0.765; in the experiment on OCT4 + histone octamer it was 0.854; in the experiment with SOX2 + histone octamer [1], 0.844; in experiment [2], -0.237.

For the sequence “GATGGACCCTATACGCGGCAATGACTATGGTAAATTCCATTCTCAACCACACATTAACTCAGAGAATTCTTGAGCTACACAGTGACAGACTGAGCTCAAGGAGAAAGACAGGCATTCTGAGTTTCAGACTACGGAGCCATTTGGAGGTGACATGTACAGAACAATGCACAGCTTTGAGATTTTATATTGGTCCTTCCCTGCCCAATGTCATGCCAGTCGGATAGTGTTCC”, the binding signal (log2 relative supershift) in the experiment with KLF4 + histone octamer is 1.97; in the experiment on OCT4 + histone octamer, 0.136; in the experiment on SOX2 + histone octamer [1], 1.24; in experiment [2], -0.163.

As to “GATGGACCCTATACGCGGCGTTTCTTCGCCCCACTTTATAACAACATCAGTCACATTCACATACAAAGGATGTGGAACAGAAAAGACCCAAAGAGCTTTGCAAATGCTCCTGGAGGGCACTGGCAGGCACTGGTTGAGCAAGTTCTCTAATGGTGTGTCAGTGGTGAGGTACAGTTCAACAAAGAGTTTTCAGAGGCTTTAATTATATTATGCCAGTCGGATAGTGTTCC”, the binding signal (log2 relative supershift) in the experiment with KLF4 + histone octamer was 1.61; in the experiment on OCT4 + histone octamer, 0.136; in the experiment on SOX2 + histone octamer [1], 1.38; in experiment [2], -0.0916.

For “GATGGACCCTATACGCGGCTATGAACTTTTCTCTGTTATGGTTCATTCTGGGAGCGCTGCTGGTGGTCATTATTATGCATGTATAAAGTCATTCAGTGATGAGCAGTGGTACAGCTTCAATGATCAACATGTCAGCAGGGTAAGGAGGTGTCCTTTAAGATTATTACTCTGAAAGGTGGGAGTAAGGATGTTTCTAAACAACAGTAAAGTTGCCAGTCGGATAGTGTTCC”, the binding signal (log2 relative supershift) in the experiment with KLF4 + histone octamer is 1.57; with OCT4 + histone octamer, 0.274; in the experiment with SOX2 + histone octamer [1] it was 0.682; in experiment [2], -0.0041.

For the sequence “GATGGACCCTATACGCGGCAAATAATGGATGCAGGAATTCTGTATTCCATTCATATTCACTTGCTTTCAGCAGGATGAAGCACTTGAAGGGAAGGCGGTGCATCTCTCCTCTCGCTTTCCACCCACCTTTATCCTGGAAATTCAGACTGCCCTGTTGCTATTCACATGAAGCCTCAGTACAAGCCTTGCTCATAGCAAAAGAAGGCACAGTGCCAGTCGGATAGTGTTCC”, the binding signal (log2 relative supershift) was 0.851 with KLF4 + histone octamer, 0.44 in the experiment on OCT4 + histone octamer, 1.3 in the experiment with SOX2 + histone octamer [1] and -0.178 in experiment [2].

Consider “GATGGACCCTATACGCGGCTTCACCCTCCTGTCCCTCCGGACCTGCAATTCTTCACACCCTCTGCAGCGCACAGGGTGCTCAGGACACATGTGCACGGTGGGGGCTGGCGATGCTTCCTCGCCCCCACCACCCGCAAGCTTGCAGAGAGCTGTAGTGCCCAGGATGTATGCCAGGATAGGAATTCCACGGTTCCAGGCATGCCAAGAAAATGCCAGTCGGATAGTGTTCC”, for which the binding signal (log2 relative supershift) in the experiment on KLF4 + histone octamer is 2.48; in the experiment with OCT4 + histone octamer, 0.426; in experiment [3], 0.612; with SOX2 + histone octamer [4], -0.201.

Take “GATGGACCCTATACGCGGCCATAGTGTTGTTATAAGGGTTAGACTATCATGCATCATTAGCACCTGGCCTAGTGTGAGCCCATAAATGGAATTCAGTGAATGCTTCTTCTGCCTCCCTTTGTGCTAAGAGATGAGTTGCCTTGCCCAGGTCATCAGCTTATGCATAGCAAAGACAAGGCAGAAACTTTAATGTTTAAACCTGAAAATCCATGCCAGTCGGATAGTGTTCC”: the binding signal (log2 relative supershift) in the experiment with KLF4 + histone octamer was found to be 1.18; in the experiment on OCT4 + histone octamer, 0.231; in the experiment with SOX2 + histone octamer [1] it was 0.856; in experiment [3], 0.176.

Consider “GATGGACCCTATACGCGGCAGAGTCAAAAACACTTCCAAATAAGGAAAGAGGAATAAGCTATGACCTAATGCTTGCTTGGACATGTTCAGGCATGCTGGGACAAATATCTAGGCTAAAATGTGGGAGCTAAGAGCACGGAGTGTATTGATTTCTTAATTATGGCTAGCAGATATTTAAGAATATTAGCACAGATCTTTGAGTAAATTTTGTGCCAGTCGGATAGTGTTCC”, for which the binding signal (log2 relative supershift) in the experiment on KLF4 + histone octamer is 0.00105; in the experiment with OCT4 + histone octamer it was 0.278; in the experiment on SOX2 + histone octamer [1], 0.25; in experiment [2], -0.419.

On to “GATGGACCCTATACGCGGCCCTTATTCATGCAACATCCCTAAACAAAAGGATTTACAAAAAAAAGCCACTAAGGCATAAGCTCCATGAGGGGAGGGGTCTGTGTTTATTTCTTGCTATATCCCAGGCACACAGCAGTGCTTATTGCCTGGGAGGCAAGCAATAAATATTTGCTGAATAAATTGCTTAGTATCAGATGGACTAGCTTTTGATGCCAGTCGGATAGTGTTCC”, for which the binding signal (log2 relative supershift) was 1.2 in the experiment with KLF4 + histone octamer, 0.334 in the experiment with OCT4 + histone octamer, 1.52 in the experiment with SOX2 + histone octamer [1] and -0.458 in experiment [2].

Turning to “GATGGACCCTATACGCGGCTAAGTAACTTGTCCAAGTTGTTCACACAGTGAAGGGAGGGGCCAAGATATGATGGCTGGGAGTCTAATTGCAGTTCCCTGAGCCATGTGCCTTTCTCTTCACTGAGGACTGCCCCATTCTTGAGTGCCAAACGTCACTAGTAACAGGGTGTGCCTAGATAATTTATGATCCAAACTGAGTCAGTTTGGAAATGCCAGTCGGATAGTGTTCC”, the binding signal (log2 relative supershift) is 2.5 with KLF4 + histone octamer, 0.266 with OCT4 + histone octamer, 0.311 in the experiment with SOX2 + histone octamer [1] and -0.0705 in experiment [2].

On to “GATGGACCCTATACGCGGCAACATACATATGCATGCATATGCACAGTCACAGGTGCACGTGCAAGACCCGATGCGCATACATGCACACGTGCACAAACAGGCACACACACGCACGTGCACACACCCACCCACACATGTATGCACATACAAGCACAAACACGTGCATGCCCACACACACATGCACACACACGTACACACACACACGCGCACTGCCAGTCGGATAGTGTTCC”, for which the binding signal (log2 relative supershift) with KLF4 + histone octamer is 0.138; in the experiment with OCT4 + histone octamer, 0.477; in experiment [3] it was 1.47; in the experiment with SOX2 + histone octamer [4] it was -0.149.
